From the supplement of paper PMC3334620
Over roughly 33,000 sequences, “E-score (-0.5 to 0.5)” has its median near -0.0034; the highest 2% begin near 0.25. This is one part of the list.

target: T1, Yap3 (UniProt P38749); test: PBM E-score (8-mer binding enrichment) (E-score (-0.5 to 0.5)); higher = stronger / more preferred TF binding; settings: protein concentration: 100 nM; construct: GST-full length
T1 sequence: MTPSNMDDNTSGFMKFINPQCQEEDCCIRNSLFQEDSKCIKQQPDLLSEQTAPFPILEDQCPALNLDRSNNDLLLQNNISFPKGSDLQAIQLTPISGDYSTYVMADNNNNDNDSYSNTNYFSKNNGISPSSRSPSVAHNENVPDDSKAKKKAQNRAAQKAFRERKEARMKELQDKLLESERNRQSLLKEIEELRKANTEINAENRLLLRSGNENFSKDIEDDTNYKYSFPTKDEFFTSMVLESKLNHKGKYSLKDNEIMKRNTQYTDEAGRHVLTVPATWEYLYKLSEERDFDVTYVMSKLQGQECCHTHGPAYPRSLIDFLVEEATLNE
In short: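 Full-length yeast transcription factors or their DNA-binding domains, GST-tagged and expressed with PURExpress, were applied at about 100-200 nM to universal all-10-mer Agilent arrays. These arrays had been made double-stranded by primer extension on fresh or once-stripped slides. Detection used fluorescent anti-GST, normalisation used masliner, and E-scores for ungapped eight-base words pooled with reverse complements came from the Universal PBM Analysis Suite.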

Sequence	PBM E-score
ACACCGCC	-0.166
CCTTATTC	0.0232
CTGAAAAA	-0.195
AGAACGGG	-0.0233
ACCTGCAC	-0.0683
GGGGGAAC	-0.35
CATATCGC	0.0128
CCCGAGAC	-0.246
AAACCACG	-0.0371
GGTTACAC	-0.122
GAAATTGC	0.101
ACACTCGC	0.215
AGGACTGA	-0.104
AGTCATTA	0.0463
CGCTAAGC	-0.0259
ACAGAGAC	0.0186
GACATCCA	-0.0886
GAGTTGGA	-0.00484
GAGGCAGC	-0.144
GCCAATCA	-0.169
CGGTGGTA	-0.0741
GTAGGTCA	-0.236

Sequence	PBM E-score
CGTGATAC	0.00869
AATGCGGC	-0.00012
GGATCTCA	-0.109
GTATGGGA	-0.213
ATTTGACG	0.138
GAACCCAA	-0.132
ATCAGATG	-0.0756
CCTCCCTC	-0.0218
GCAACTCC	-0.188
TAGTTCGA	0.0925
AACGGGAT	-0.00343
CTATAAAC	0.11
CTACGCCC	-0.185
CGTTTTAC	0.0284
ACCCTTTG	-0.252
CCACCAGG	-0.334
AGTAGGGC	-0.0166
ATGGTAGG	-0.0663
ATTGTGCC	0.0299
CAAAGTCG	0.036
AGTGGTAG	-0.111
GCGCGAAC	0.045

Sequence	PBM E-score
CTTAGGGC	-0.25
CAGTACGA	0.158
CTAGATTA	0.146
ACCGAAAC	0.00664
TCCAACGA	-0.112
AAGTGCAC	0.214
CCTGTCTC	-0.174
AATAATAC	0.296
AGCCAGAG	-0.124
GACGTAGA	-0.266
CAATGTAG	-0.0631
AGGTCACC	-0.229
ACCCAGCT	-0.093
AGATCATG	0.0443
ACGCCGGG	-0.242
AGTCATGA	0.128
CTCCGTAC	0.047
CGATAAAG	0.0668
ACACGCTA	0.0954
GCGACTTA	-0.116
ATTGATTA	0.23
GTATAATA	0.287

Part of the list above, as a markdown table.

| Sequence | PBM E-score |
| --- | --- |
| AGGACTGA | -0.104 |
| AGTCATTA | 0.0463 |
| CGCTAAGC | -0.0259 |
| ACAGAGAC | 0.0186 |

(listing goes on)

Sequence	PBM E-score
ATTAAATC	0.211
ACGTCGCC	-0.105
ACCGGGGG	-0.374
GTCCTAAA	0.0256
GTGAGTAA	0.154
AGGGCATA	-0.0468
CGTGTTAC	0.045
TACAGGCA	0.00367
GTGTACAC	0.0972
AATTGCAT	0.0837
ATCCTCTG	-0.00518
CTAGATAA	0.131
CCGCGCTA	0.137
ACATCTGA	-0.171
ATATCAAT	0.268
CGAAGTAA	0.0985
ATGGCCCC	-0.384
GCGATACA	-0.0743
ACGTGTAT	0.115
AACACTAG	0.151
